The list shows only some results of the screen, not a fair sample: it is rich in T/C values a quarter to a half above the control, in often repeated tests (any T/C) and in doses without a T/C. Further doses and runs are listed elsewhere. T/C: endpoint of the treated group in % of that of the vehicle group. Some doses have a count of surviving animals in place of a T/C: the source holds a T/C of zero for them, seemingly a mark for toxic or unscored doses. Some survivor counts are full or nearly so, which does not show that the dose was tolerated: the source hardly ever lists a survival T/C far under the control, and the zero likely stands for such cases as well. Counts of survivors are from the toxicity check (mostly the fifth day) where no day follows; animals may have died later. Schedule codes are those of the source, read here as Q, the interval in days (D) or hours (H), X, the number of doses. Some structures stand for samples that the source files as different forms (salt, stereo form or complex); doses refer to the form tested. Some entries hold several experiments; the results are listed from low to high. For survival time, the PubChem record calls one and a half times the control and up active, and a quarter to a half above the control has no call in these data; cut-offs in other NCI protocols can differ. Some T/C values are followed by the survivors on the day toxicity was checked, most often the fifth; without a count, all were alive then.

This assay has as its system BDF1 mice, P388 leukemia ip, median survival T/C. Put plainly: NCI In Vivo Anticancer Drug Screen. Data for tumor model P388 Leukemia (intraperitoneal) in B6D2F1 (BDF1) mice. As to conditions: T/C endpoint: median survival time, higher T/C = longer survival. The essentials:
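Transplantable tumour in mice; compound vs vehicle dosing; survival scored; ratio of treated to control reported.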

[1] abbreviates: dose: 50.0 mg/kg/injection, schedule: Q01DX009 (ip), vehicle: Klucel (hydroxypropylcellulose) (HPC).
[2] abbreviates: dose: 100.0 mg/kg/injection, schedule: Q01DX009 (ip), vehicle: Klucel (hydroxypropylcellulose) (HPC).
The mark [3] stands for this setting: dose: 400.0 mg/kg/injection, schedule: Q04DX003 (ip), vehicle: Klucel (hydroxypropylcellulose) (HPC).
Setting [4] is: dose: 200.0 mg/kg/injection, schedule: Q01DX009 (ip), vehicle: saline with Tween-80.
The mark [5] stands for this setting: dose: 400.0 mg/kg/injection, schedule: Q04DX003 (ip), vehicle: saline with Tween-80.
[6] abbreviates: dose: 200.0 mg/kg/injection, schedule: Q01DX009 (ip), vehicle: saline.
The mark [7] stands for this setting: dose: 100.0 mg/kg/injection, schedule: Q01DX009 (ip), vehicle: saline with Tween-80.

`C1CCc2nnnn2CC1`: the survivor count by setting is: (dose: 37.5 mg/kg/injection, schedule: Q04DX003 (ip), vehicle: saline) 6 of 6; (dose: 50.0 mg/kg/injection, schedule: Q01DX009 (ip), vehicle: saline) 5 of 6; (dose: 75.0 mg/kg/injection, schedule: Q04DX003 (ip), vehicle: saline) 0 of 6.

Take `CCCCCCCCCCCCCCC(F)C(=O)O` (centres undefined): the survivor count under setting [1] was 6 of 6; the survivor count under setting [2] is 5 of 6; the survivor count (dose: 200.0 mg/kg/injection, schedule: Q04DX003 (ip), vehicle: Klucel (hydroxypropylcellulose) (HPC)) is listed as 4 of 6; the survivor count under setting [3] is 5 of 6.

As to `CN(C)Cc1cc(C(C)(C)CC(C)(C)C)ccc1O`, the survivor count (dose: 400.0 mg/kg/injection, schedule: Q04DX002 (ip), vehicle: Klucel (hydroxypropylcellulose) (HPC)) is listed as 3 of 6.

Turning to `Cc1ccc(NCC2(/N=C/c3ccccc3)OC(CO)C(O)C2O)cc1` (centres undefined), the T/C under setting [2] was 129 % of control [5 of 6 alive].

In the case of `CCC(C)SC1=NC=NC2=NC=NC21` (centres undefined), the survivor count is, setting by setting: under setting [4], 3 of 6; under setting [5], 1 of 6.

In the case of `COc1cc2cc3c4ccc(OC)c(OC)c4cc[n+]3c(C)c2cc1OC` (tested in a mixture with another compound), the T/C is 149 % of control (dose: 10.0 mg/kg/injection, schedule: Q01DX009 (ip), vehicle: saline) and 141 % of control (dose: 20.0 mg/kg/injection, schedule: Q01DX009 (ip), vehicle: saline). Further, the survivor count runs as follows: under setting [6], 4 of 6; (dose: 240.0 mg/kg/injection, schedule: Q01DX009 (ip), vehicle: saline) 6 of 6.

As for `Cc1n(C(C)C)c2c([n+]1C)C(=O)c1ccccc1C2=O`, for the setting “dose: 5.0 mg/kg/injection, schedule: Q01DX009 (ip), vehicle: alcohol”, the survivor count is on record as 0 of 6.

As to `Cc1ccc(-c2nc3ccccc3c(=O)n2/N=C/c2cccc3ccccc23)cc1`, under setting [4], the survivor count was 6 of 6.

On to `CCC1(O)CC(OC2CC(N(C)C)C(OC3CC(O)C(OC4CCC(=O)C(C)O4)C(C)O3)C(C)O2)c2c(cc3c(c2O)C(=O)c2c(O)ccc(O)c2C3=O)C1C(=O)OC` (centres undefined), for which the T/C (dose: 1.73 mg/kg/injection, schedule: Q04DX003 (ip), vehicle: water) is 149 % of control. The survivor count (dose: 8.0 mg/kg/injection, schedule: Q04DX003 (ip), vehicle: water) was 8 of 8.

Take `CC(=O)C1C(=O)C(=O)OC1C` (centres undefined): the survivor count under setting [5] was 6 of 6.

For `CCCC#CCOCC(O)CCl` (centres undefined), the survivor count is, setting by setting: (dose: 400.0 mg/kg/injection, schedule: Q01DX009 (ip), vehicle: saline) 2 of 6; under setting [5], 3 of 6.

Turning to `ClCC[N+]12CC[N+](CCCl)(CC1)C2`, the T/C was 140 % of control (dose: 50.0 mg/kg/injection, schedule: Q01DX009 (ip), vehicle: saline with Tween-80); 147 % of control under setting [7]; 126 % of control (dose: 100.0 mg/kg/injection, schedule: Q01DX009 (ip), vehicle: saline); 133 % of control (dose: 100.0 mg/kg/injection, schedule: Q04DX003 (ip), vehicle: saline with Tween-80); 144 % of control under setting [6]; 141 % of control under setting [5]. The survivor count under setting [4] is on record as 5 of 6; the survivor count (dose: 200.0 mg/kg/injection, schedule: Q04DX003 (ip), vehicle: saline with Tween-80) is on record as 2 of 6; the survivor count (dose: 400.0 mg/kg/injection, schedule: Q01DX009 (ip), vehicle: saline with Tween-80) is 2 of 6.

Consider `COc1cc(NC(=O)N(CCCl)N=O)cc(OC)c1OC`, for which the T/C was 133 % of control (dose: 1.32 mg/kg/injection, schedule: Q04DX003 (ip), vehicle: saline + alcohol); 138 % of control (dose: 2.0 mg/kg/injection, schedule: Q04DX003 (ip), vehicle: saline + alcohol); 146 % of control (dose: 12.5 mg/kg/injection, schedule: Q01DX009 (ip), vehicle: saline + alcohol). Moreover, under “dose: 50.0 mg/kg/injection, schedule: Q01DX009 (ip), vehicle: saline + alcohol”, the survivor count was 6 of 6.

For `COC(=O)[C@@]12OC[C@]34[C@H]([C@@H](O)[C@@H]1O)[C@@]1(C)CC(=O)C(O)=C(C)[C@@H]1C[C@H]3OC(=O)[C@H](OC(=O)/C=C(\C)C1(C)CO1)[C@@H]24` (some centres undefined), the T/C is, setting by setting: (dose: 0.12 mg/kg/injection, schedule: Q01DX009 (ip), vehicle: saline + alcohol) 125 % of control; (dose: 0.25 mg/kg/injection, schedule: Q01DX009 (ip), vehicle: saline + alcohol) 132 % of control. Further, the survivor count by setting is: (dose: 0.5 mg/kg/injection, schedule: Q01DX009 (ip), vehicle: saline + alcohol) 2 of 6; (dose: 1.0 mg/kg/injection, schedule: Q01DX009 (ip), vehicle: saline + alcohol) 2 of 6; (dose: 2.0 mg/kg/injection, schedule: Q01DX009 (ip), vehicle: saline + alcohol) 0 of 6.

For the compound `C#CCOCC(O)CO` (centres undefined), the survivor count by setting is: (dose: 200.0 mg/kg/injection, schedule: Q04DX003 (ip), vehicle: water) 2 of 6; (dose: 400.0 mg/kg/injection, schedule: Q01DX009 (ip), vehicle: water) 0 of 6.

Consider `CC1CCOS(=O)O1` (centres undefined), for which, under “dose: 80.0 mg/kg/injection, schedule: Q01DX010 (ip), vehicle: saline”, the survivor count is recorded as 6 of 6.

Take `O=[N+]([O-])c1cc([N+](=O)[O-])c(Cl)cc1Cl`: the survivor count (dose: 100.0 mg/kg/injection, schedule: Q04DX003 (ip), vehicle: Klucel (hydroxypropylcellulose) (HPC)) is 6 of 6.

`O=C(CC(=O)C(F)(F)F)c1csc2ccccc12`: the T/C is 125 and 126 % of control (dose: 100.0 mg/kg/injection, schedule: Q01DX009 (ip), vehicle: gum acacia); 125 % of control under setting [7]. In addition, the survivor count was 2 of 6 (dose: 150.0 mg/kg/injection, schedule: Q01DX009 (ip), vehicle: saline with Tween-80); 0 of 6 (dose: 170.0 mg/kg/injection, schedule: Q01DX009 (ip), vehicle: Klucel (hydroxypropylcellulose) (HPC)); 0 of 6 (dose: 200.0 mg/kg/injection, schedule: Q04DX003 (ip), vehicle: gum acacia); 1 of 6 (dose: 400.0 mg/kg/injection, schedule: Q04DX003 (ip), vehicle: gum acacia).

Consider `CCC(C)C1NC(=O)C(NC(=O)c2c3nc4c(C(=O)NC5C(=O)NC(C(C)CC)C(=O)N6CCCC6C(=O)N(C)CC(=O)N(C)C(C(C)C)C(=O)OC5C)cc(N)c(C)c4oc-3c(C)c(=O)c2N)C(C)OC(=O)C(C(C)C)N(C)C(=O)CN(C)C(=O)C2CCCN2C1=O` (centres undefined), for which the T/C runs as follows: (dose: 0.15 mg/kg/injection, schedule: Q04DX003 (ip), vehicle: saline + alcohol) 131 % of control; (dose: 0.3 mg/kg/injection, schedule: Q04DX003 (ip), vehicle: saline + alcohol) 138 % of control [6 of 8 alive]; (dose: 1.2 mg/kg/injection, schedule: Q04DX003 (ip), vehicle: saline + alcohol) 142 % of control. Further, the survivor count (dose: 2.4 mg/kg/injection, schedule: Q04DX003 (ip), vehicle: saline + alcohol) was 2 of 8 and 5 of 8.

Consider `Cc1ccc(S(=O)(=O)OC2CCC(C(C)(C)C)CC2Cl)cc1` (centres undefined), for which the survivor count under setting [3] is 5 of 6.

On to `CC(C)(N)COS(=O)(=O)O`, for which the survivor count under setting [6] is listed as 6 of 6.

`O=[N+]([O-])/C=C\c1ccc2c(c1)OCO2`: the T/C is 131 % of control (dose: 25.0 mg/kg/injection, schedule: Q01DX009 (ip), vehicle: Klucel (hydroxypropylcellulose) (HPC)) and 125, 127, 138 % of control under setting [1]. Moreover, the survivor count is given as 5 of 6 under setting [2]; 2 of 6 (dose: 200.0 mg/kg/injection, schedule: Q01DX009 (ip), vehicle: Klucel (hydroxypropylcellulose) (HPC)); 0 of 6 (dose: 400.0 mg/kg/injection, schedule: Q01DX009 (ip), vehicle: Klucel (hydroxypropylcellulose) (HPC)); 1 of 6 under setting [3].

For `O=C(C(=O)C(Br)Br)C(Br)Br`, the survivor count is on record as 6 of 6 (dose: 12.5 mg/kg/injection, schedule: Q01DX009 (ip), vehicle: DMSO) and 0 of 6 (dose: 25.0 mg/kg/injection, schedule: Q01DX009 (ip), vehicle: DMSO).

These data come from PubChem BioAssay AID328 (DTP/NCI, 2004).
